Among the data in publication PMC7862700 are binding signal values, retold here.

By UniProt entry, the sequences of proteins in these tests, tags left out. Where a name states a change or a piece, a line headed by the entry shows the natural chain unless it says otherwise.
UniProt Q01892: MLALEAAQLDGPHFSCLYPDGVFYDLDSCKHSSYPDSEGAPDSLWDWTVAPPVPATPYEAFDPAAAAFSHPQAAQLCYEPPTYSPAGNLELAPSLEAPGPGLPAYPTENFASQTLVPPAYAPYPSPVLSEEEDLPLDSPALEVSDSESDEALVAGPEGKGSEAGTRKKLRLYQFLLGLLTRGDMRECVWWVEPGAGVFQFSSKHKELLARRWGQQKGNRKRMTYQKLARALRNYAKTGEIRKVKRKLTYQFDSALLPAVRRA
UniProt P41161: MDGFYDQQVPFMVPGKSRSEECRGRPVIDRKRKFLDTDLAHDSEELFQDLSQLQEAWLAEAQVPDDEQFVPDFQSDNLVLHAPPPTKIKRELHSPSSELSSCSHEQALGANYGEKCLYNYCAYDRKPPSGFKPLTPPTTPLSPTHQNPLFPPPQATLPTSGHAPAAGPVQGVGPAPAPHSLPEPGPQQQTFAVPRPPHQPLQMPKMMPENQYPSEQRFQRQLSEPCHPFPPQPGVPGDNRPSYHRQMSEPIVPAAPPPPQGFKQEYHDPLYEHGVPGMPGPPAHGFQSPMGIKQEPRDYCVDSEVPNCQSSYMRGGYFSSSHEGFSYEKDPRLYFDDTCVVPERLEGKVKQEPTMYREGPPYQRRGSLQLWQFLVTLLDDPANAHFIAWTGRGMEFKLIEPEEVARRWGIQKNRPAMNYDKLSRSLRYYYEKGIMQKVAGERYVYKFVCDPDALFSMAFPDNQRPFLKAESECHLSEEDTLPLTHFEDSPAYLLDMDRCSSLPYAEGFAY
UniProt Q99607: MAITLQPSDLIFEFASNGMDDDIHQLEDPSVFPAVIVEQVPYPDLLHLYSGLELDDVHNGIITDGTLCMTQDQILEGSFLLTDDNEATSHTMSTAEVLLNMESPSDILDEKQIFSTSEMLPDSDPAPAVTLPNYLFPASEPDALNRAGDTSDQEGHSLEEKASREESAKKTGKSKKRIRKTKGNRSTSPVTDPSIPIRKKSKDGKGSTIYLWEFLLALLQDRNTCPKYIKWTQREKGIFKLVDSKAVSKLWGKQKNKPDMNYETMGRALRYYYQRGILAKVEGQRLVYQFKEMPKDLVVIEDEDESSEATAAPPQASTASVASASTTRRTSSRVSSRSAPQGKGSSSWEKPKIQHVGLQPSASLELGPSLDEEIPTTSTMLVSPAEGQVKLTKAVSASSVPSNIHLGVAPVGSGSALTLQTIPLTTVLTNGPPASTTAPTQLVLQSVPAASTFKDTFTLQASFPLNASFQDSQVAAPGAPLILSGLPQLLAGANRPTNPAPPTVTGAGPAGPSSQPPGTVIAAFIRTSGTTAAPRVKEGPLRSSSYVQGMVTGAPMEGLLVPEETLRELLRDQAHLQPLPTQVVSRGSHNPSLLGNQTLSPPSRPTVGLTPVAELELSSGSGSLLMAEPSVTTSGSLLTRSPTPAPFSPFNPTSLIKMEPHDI

The entries are a selection whose mix differs from that of the whole data set. At the low end of the ranking the order means little.

Among the targets are SPIB (UniProt Q01892); ETV5 (UniProt P41161); ELF4 (UniProt Q99607).
Holding throughout (test): DAPPL (digital affinity profiling via proximity ligation, sequencing)
Settings in all cases: 10 mM Tris-HCl pH 7.5, 50 mM NaCl, 1 mM DTT, 4% glycerol, room temperature, 30 min; GST-TFs on glutathione beads, 16-mer random dsDNA library, 0.1% …; high values mean tight binding; double strand, one strand shown; scale: fold enrichment (6-mer frequency, TF over GST control)

The target of the next experiment is T1, FLI1 (UniProt Q01543).
T1 sequence: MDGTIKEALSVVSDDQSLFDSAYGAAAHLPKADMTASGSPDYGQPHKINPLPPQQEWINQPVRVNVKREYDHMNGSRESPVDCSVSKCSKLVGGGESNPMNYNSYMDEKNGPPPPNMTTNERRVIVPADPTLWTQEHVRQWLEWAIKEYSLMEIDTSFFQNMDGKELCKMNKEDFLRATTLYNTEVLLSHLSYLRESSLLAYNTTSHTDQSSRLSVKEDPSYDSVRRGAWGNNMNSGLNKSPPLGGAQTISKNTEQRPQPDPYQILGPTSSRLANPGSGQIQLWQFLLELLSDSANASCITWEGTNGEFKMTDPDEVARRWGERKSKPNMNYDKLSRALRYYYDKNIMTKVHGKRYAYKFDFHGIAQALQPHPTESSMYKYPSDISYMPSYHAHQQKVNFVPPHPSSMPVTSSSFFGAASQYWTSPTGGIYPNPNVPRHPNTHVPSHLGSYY

The next experiment has as its target T2, EHF (UniProt Q9NZC4).
T2 sequence: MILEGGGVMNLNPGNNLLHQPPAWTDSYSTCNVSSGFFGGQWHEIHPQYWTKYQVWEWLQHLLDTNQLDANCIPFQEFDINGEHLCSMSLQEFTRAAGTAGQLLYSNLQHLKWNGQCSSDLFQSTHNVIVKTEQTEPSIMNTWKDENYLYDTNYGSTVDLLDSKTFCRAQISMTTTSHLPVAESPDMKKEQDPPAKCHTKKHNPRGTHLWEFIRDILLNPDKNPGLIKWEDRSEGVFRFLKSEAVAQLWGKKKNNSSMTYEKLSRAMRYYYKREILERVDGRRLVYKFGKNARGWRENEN

The next experiment deals with T3, ETV2 (UniProt O00321).
T3 sequence: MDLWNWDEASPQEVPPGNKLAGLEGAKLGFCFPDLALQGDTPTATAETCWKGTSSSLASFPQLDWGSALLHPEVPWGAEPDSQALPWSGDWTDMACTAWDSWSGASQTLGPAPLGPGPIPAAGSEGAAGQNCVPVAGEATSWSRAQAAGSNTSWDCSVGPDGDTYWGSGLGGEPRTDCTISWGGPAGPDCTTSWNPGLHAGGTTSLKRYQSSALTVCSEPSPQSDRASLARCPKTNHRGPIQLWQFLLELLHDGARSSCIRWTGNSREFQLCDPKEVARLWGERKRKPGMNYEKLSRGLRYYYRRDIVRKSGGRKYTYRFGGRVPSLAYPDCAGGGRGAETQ

The target of a further experiment is T4, ETV3L (UniProt Q6ZN32).
T4 sequence: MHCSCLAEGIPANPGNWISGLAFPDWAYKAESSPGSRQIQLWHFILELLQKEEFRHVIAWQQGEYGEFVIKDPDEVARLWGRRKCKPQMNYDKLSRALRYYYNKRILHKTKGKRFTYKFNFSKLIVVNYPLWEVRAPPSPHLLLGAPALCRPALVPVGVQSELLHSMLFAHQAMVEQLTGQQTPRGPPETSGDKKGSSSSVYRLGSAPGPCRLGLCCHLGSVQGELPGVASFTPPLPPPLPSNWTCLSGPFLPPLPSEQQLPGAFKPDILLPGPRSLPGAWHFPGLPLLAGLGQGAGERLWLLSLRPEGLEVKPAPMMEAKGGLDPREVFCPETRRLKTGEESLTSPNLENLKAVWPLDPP

Take AGTCTT: the binding signal in the experiment with FLI1 came to 0.959; with EHF, 0.945; with SPIB, 0.795; in the experiment with ETV5, 0.926; in the experiment with ELF4, 0.87; in the experiment with ETV2, 0.799. In the experiment with ETV3L, this sequence registered a binding signal of 0.996.
On to CTGTGT, for which the binding signal in the experiment with FLI1 was found to be 0.869; with EHF, 0.763; in the experiment with SPIB, 0.798; in the experiment with ETV5, 0.844; with ELF4 it was 0.904; with ETV2, 0.997. In the experiment with ETV3L, this sequence yielded a binding signal of 0.841.
As for CAGAAC, the binding signal in the experiment with FLI1 is 0.893; with EHF it was 0.885; with SPIB, 0.91; in the experiment with ETV5 it was 0.891; with ELF4, 0.921; with ETV2, 0.893. The binding signal with ETV3L was determined as 0.912.
With TGGTGA, the binding signal with FLI1 was 0.931; in the experiment with SPIB, 0.873; in the experiment with ETV5, 0.905; in the experiment with ELF4, 0.941; in the experiment with ETV2 it was 0.881; with ETV3L, 0.973.
On to GGCTGC, for which the binding signal amounted to 0.984 in the experiment with FLI1; 0.915 in the experiment with SPIB; 0.981 with ETV5; 0.967 in the experiment with ELF4; 0.904 with ETV2; 0.968 with ETV3L.
In the case of GAAAGT, the binding signal worked out at 0.827 with FLI1; 0.822 with EHF; 0.846 in the experiment with SPIB; 0.863 in the experiment with ETV5; 0.828 in the experiment with ELF4; 0.812 in the experiment with ETV2. In the experiment with ETV3L, this sequence yielded a binding signal of 0.846.
For the sequence GTGCTG, the binding signal with FLI1 is 0.969; with EHF it was 0.889; in the experiment with SPIB, 0.84; with ETV5 it was 0.897; in the experiment with ELF4 it was 0.888; in the experiment with ETV2 it was 0.908. This sequence also displayed a binding signal with ETV3L of 0.902.
Turning to GATAAG, the binding signal with FLI1 was 0.93; in the experiment with EHF, 0.904; in the experiment with SPIB, 0.883; with ETV5, 0.819; in the experiment with ELF4, 0.989; with ETV2 it was 0.958. The binding signal in the experiment with ETV3L was 0.932.
For GTGGTT, the binding signal in the experiment with FLI1 came out at 0.897; with EHF it was 0.851; with SPIB, 0.959; in the experiment with ETV5, 0.918; with ELF4, 0.849; in the experiment with ETV2, 0.833. This sequence also came in with a binding signal with ETV3L of 0.906.
Take GGCACC: the binding signal with FLI1 was determined as 0.802; with EHF, 0.736; with SPIB, 0.744; in the experiment with ETV5, 0.761; with ELF4, 0.819; in the experiment with ETV2, 0.754. The sequence also had a binding signal with ETV3L of 0.782.
As for TCGCGA, the binding signal with FLI1 worked out at 0.881; with EHF, 0.839; with SPIB it was 0.83; in the experiment with ETV5 it was 0.826; in the experiment with ELF4, 0.896; with ETV2 it was 0.903. This sequence had a binding signal with ETV3L of 0.829.
Regarding TCATTG, the binding signal with FLI1 worked out at 0.997; with SPIB, 0.937; with ETV5 it was 0.957; with ELF4 it was 0.965; in the experiment with ETV2, 0.948; with ETV3L it was 1.04.
TACGGG: the binding signal is 0.92 with FLI1; 0.896 in the experiment with EHF; 0.905 with SPIB; 0.912 with ETV5; 0.869 with ELF4; 0.79 in the experiment with ETV2. Besides, in the experiment with ETV3L, the binding signal is 0.887.
For GTGTAA, the binding signal with FLI1 came to 0.848; with EHF it was 0.908; in the experiment with SPIB, 0.933; with ETV5, 0.93; with ELF4, 0.905; in the experiment with ETV2, 0.836. For the same sequence, in the experiment with ETV3L, the binding signal worked out at 0.974.
